For experiment [1], the target named is T1, Mit1(1-81), Chp2 interaction interface (CII), tag removed (S. pombe) (UniProt Q9P793).
T1 sequence: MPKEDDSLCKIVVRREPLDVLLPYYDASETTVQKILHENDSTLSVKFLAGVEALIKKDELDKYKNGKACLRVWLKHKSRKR
Kind of experiment: crystal structure; Mit1(1-81)–Chp2(316-380), coexpressed in E. coli, purified as a complex; hanging drops at 18°C, 2.4 M sodium malonate pH 7, 3% 1,6-hexanediol; 1.6 Å; both purified.

The target in experiment [2] is T2, Mit1 (OneStrep-tagged, coexpressed in insect cells) (S. pombe) (UniProt Q9P793).
T2 sequence: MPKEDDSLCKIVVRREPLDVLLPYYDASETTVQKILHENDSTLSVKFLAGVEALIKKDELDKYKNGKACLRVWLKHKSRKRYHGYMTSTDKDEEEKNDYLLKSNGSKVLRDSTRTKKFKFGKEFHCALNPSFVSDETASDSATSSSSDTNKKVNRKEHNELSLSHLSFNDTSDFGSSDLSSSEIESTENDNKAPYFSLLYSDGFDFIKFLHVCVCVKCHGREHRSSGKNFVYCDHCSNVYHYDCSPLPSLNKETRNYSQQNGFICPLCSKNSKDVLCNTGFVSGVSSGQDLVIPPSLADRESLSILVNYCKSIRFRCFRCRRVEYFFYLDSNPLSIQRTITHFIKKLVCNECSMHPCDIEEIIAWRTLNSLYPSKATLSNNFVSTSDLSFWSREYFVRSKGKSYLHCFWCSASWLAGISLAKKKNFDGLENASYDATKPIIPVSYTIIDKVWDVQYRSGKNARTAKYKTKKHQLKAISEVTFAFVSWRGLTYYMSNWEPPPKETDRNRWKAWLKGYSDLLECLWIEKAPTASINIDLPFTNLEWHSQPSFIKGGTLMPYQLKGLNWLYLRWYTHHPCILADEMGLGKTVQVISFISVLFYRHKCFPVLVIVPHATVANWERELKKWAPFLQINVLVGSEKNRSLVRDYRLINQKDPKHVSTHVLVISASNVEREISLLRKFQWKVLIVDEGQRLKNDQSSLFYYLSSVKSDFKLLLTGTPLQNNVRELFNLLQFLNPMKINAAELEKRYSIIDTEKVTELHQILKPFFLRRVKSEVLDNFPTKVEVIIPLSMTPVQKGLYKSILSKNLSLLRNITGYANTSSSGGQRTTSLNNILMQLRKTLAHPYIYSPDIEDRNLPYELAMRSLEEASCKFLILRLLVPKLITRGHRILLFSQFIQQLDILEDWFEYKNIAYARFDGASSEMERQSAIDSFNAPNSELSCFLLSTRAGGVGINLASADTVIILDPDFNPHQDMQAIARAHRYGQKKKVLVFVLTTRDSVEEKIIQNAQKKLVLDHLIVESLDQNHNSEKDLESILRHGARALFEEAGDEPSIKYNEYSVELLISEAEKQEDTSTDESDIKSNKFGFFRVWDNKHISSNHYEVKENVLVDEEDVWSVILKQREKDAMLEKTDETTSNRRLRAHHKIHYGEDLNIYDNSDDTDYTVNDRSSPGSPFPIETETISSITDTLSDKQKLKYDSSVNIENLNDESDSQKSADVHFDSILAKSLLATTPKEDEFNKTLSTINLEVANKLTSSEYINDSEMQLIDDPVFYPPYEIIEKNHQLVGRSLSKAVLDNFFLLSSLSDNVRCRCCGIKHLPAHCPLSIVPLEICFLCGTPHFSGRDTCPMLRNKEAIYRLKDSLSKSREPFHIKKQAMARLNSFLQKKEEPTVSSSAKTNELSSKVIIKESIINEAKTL
Kind of experiment: pull-down; proteins coexpressed in Sf9 cells; OneStrep-tagged Mit1 constructs captured from the lysate on StrepTactin beads, 1 h at 4°C; 400 mM KCl, 100 mM Tris pH 7.5, 2 mM Mg-acetate, 5 mM β-mercaptoethanol, 0.1% NP40; eluted with desthiobiotin; Clr1MID included to stabilize the Mit1 C terminus.

Experiment [3] concerns the target T3, mit1ΔN-13myc (N-terminal 200 amino acids deleted) (S. pombe) (UniProt Q9P793).
T3 sequence: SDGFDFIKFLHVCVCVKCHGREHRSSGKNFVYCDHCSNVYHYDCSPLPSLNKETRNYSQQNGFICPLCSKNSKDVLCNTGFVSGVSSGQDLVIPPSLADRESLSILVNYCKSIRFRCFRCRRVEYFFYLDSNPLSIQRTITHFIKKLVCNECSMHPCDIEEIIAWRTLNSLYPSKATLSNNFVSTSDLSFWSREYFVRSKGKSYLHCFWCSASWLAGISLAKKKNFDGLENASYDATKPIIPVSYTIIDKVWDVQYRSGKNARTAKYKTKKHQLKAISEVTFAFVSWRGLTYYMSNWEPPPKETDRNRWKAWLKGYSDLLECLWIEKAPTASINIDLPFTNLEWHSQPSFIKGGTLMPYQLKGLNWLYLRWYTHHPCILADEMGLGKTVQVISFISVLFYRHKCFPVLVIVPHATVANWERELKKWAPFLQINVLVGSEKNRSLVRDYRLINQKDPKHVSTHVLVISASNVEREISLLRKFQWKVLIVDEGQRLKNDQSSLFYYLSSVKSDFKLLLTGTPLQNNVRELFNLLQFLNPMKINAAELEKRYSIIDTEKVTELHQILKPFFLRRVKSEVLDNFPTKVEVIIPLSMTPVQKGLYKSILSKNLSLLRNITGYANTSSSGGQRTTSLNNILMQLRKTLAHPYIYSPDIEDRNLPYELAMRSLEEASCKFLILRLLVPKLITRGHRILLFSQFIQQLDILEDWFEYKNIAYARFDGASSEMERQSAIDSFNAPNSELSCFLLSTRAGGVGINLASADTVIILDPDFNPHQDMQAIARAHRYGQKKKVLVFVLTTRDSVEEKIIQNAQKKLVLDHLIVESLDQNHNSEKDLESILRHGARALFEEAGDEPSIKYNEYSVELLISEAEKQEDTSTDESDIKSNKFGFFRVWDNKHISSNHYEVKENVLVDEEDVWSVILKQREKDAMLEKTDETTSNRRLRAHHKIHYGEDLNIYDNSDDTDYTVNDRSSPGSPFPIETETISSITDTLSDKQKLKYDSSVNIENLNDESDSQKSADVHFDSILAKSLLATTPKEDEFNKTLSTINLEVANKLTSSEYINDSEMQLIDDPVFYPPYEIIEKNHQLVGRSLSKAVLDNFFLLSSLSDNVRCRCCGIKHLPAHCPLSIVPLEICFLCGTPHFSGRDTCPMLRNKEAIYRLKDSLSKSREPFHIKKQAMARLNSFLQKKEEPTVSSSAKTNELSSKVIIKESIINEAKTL
As to the kind of experiment: co-IP; S. pombe lysate of endogenously tagged strains; Mit1-13myc captured on Myc-Trap_MA resin, 1 h; 50 mM HEPES pH 7.5, 300 mM NaCl, 1 mM EDTA, 5 mM CHAPS, 10 mM DTT.

Experiment [4] has as its target T4, Mit1-13myc (endogenously tagged) (S. pombe) (UniProt Q9P793).
T4 sequence: T2 sequence
The description is as above.

No constants are given. Whether binding was seen depends on the method and setting. For some of these results: Binding seen in cells or lysates may run through a third protein. Some binding calls cover weakened binding; strength is not graded here. Sequences can lack the tags named with a protein.

B1: Chp2CSD, Chp2(316-380), untagged, coexpressed with Mit1 fragments (domain or fragment, S. pombe, UniProt O42934 316-380, looked up)
chain: KPPFQKKSWEDLVDCVKTVQQLDNGKLIAKIKWKNGYVSTHDNIIIHQKCPLKIIEYYEAHIKFT
notes: Chp2, S. pombe, chromoshadow domain, residues 316-380; Cloned without tag into pACE2 for coexpression; Limits 316-380 are printed for the crystallised complex; also called chromo shadow domain of Chp2; Chp2CSD2; source: E. coli BL21(DE3) or Rosetta (DE3), coexpressed with Mit1 fragments, purified as a complex
As for B1, the binding result in experiment [1] is listed as “binds”.

B2: Chp2 (T7-tagged, coexpressed in insect cells) (protein, UniProt O42934 1-380)
chain: MVKSADLDLMNSIISESDENFSPPPFTVEEAENSINNKSSTASLESPQNGSWHPSLYGLSVPEKTHIQNSLDLYSHGNSGSQKTHNVSFSCEIRKVKSSKLSPISNMEDSEDKKEEDESSSYKNEFKSSSSASVSSNFEKTSGSDDHNSQSPVPLNEGFEYIASSGSEDKNSDEEFAVEMILDSRMKKDGSGFQYYLKWEGYDDPSDNTWNDEEDCAGCLELIDAYWESRGGKPDLSSLIRLTRSRARSSNEASYVEKDESSNSDDSISYKRRRSRNAANRITDYVDSDLSESSMKEKQSKIEKYMKSDKSSKNFKPPFQKKSWEDLVDCVKTVQQLDNGKLIAKIKWKNGYVSTHDNIIIHQKCPLKIIEYYEAHIKFT
B2: the binding entry in experiment [2] is listed as “binds”.

B3: 6xFlag-Chp2 (endogenously tagged) (protein, UniProt O42934 1-380)
chain: B2 chain
Consider B3, for which the binding entry in experiment [3] was “no binding”; in experiment [4], “binds”.

These data come from PMC6499331, “Transcriptional gene silencing requires dedicated interaction between HP1 protein Chp2 and chromatin remodeler Mit1” (Genes & Development, 2019).
